Assay results published in the supplement of paper PMC10849652.
The list shows a part of the results.

Protein sequences, listed by entry. Tags and fused reporters are not part of them. Lines headed by an entry give the natural chain unless they say otherwise; changes in a name come on top.
UniProt Q6FIF0: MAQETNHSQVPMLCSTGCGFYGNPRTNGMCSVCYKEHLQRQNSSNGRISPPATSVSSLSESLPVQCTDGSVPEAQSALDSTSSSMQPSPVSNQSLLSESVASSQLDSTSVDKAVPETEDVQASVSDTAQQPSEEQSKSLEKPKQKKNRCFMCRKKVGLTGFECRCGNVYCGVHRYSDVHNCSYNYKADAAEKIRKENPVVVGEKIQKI
UniProt Q96EC8: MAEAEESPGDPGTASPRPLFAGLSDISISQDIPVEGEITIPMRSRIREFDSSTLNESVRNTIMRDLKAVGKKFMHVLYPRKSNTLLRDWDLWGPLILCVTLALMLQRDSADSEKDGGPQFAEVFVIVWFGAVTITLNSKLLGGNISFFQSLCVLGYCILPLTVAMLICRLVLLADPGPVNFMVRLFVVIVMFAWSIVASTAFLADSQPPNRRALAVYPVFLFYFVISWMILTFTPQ
UniProt P13010: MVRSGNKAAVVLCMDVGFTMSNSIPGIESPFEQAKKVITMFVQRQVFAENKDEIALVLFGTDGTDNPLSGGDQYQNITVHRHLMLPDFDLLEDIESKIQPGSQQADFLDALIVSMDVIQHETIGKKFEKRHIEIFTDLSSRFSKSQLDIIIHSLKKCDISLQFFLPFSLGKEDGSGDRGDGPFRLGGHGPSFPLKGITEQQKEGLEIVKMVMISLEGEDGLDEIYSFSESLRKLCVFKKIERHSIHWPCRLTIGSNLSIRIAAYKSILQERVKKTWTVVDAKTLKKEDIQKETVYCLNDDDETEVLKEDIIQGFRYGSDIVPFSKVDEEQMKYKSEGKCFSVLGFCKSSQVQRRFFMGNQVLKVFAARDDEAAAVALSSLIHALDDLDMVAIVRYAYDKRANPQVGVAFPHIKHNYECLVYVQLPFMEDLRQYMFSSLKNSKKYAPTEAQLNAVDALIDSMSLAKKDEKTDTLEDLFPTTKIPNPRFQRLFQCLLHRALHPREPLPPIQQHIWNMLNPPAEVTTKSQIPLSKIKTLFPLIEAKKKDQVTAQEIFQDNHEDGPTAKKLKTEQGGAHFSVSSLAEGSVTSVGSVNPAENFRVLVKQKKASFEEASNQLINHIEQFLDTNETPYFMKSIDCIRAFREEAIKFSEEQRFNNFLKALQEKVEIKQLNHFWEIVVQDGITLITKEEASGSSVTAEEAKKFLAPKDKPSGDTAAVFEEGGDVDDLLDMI
UniProt Q7Z739: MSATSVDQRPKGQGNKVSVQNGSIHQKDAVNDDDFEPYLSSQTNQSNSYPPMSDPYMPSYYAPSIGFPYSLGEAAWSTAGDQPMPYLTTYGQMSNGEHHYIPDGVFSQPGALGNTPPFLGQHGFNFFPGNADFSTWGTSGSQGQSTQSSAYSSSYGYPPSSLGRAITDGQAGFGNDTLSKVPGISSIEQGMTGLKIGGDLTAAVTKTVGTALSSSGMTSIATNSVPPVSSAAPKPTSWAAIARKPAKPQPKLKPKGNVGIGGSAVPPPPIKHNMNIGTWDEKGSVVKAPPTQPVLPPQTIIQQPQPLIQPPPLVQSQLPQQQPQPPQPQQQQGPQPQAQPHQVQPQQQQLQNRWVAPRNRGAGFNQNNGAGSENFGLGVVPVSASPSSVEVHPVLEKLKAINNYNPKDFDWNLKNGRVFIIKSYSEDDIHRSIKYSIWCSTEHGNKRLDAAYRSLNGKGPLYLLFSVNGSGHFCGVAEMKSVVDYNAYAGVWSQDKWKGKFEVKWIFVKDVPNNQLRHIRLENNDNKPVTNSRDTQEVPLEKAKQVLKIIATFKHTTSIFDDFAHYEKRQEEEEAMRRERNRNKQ
UniProt Q9UPT8: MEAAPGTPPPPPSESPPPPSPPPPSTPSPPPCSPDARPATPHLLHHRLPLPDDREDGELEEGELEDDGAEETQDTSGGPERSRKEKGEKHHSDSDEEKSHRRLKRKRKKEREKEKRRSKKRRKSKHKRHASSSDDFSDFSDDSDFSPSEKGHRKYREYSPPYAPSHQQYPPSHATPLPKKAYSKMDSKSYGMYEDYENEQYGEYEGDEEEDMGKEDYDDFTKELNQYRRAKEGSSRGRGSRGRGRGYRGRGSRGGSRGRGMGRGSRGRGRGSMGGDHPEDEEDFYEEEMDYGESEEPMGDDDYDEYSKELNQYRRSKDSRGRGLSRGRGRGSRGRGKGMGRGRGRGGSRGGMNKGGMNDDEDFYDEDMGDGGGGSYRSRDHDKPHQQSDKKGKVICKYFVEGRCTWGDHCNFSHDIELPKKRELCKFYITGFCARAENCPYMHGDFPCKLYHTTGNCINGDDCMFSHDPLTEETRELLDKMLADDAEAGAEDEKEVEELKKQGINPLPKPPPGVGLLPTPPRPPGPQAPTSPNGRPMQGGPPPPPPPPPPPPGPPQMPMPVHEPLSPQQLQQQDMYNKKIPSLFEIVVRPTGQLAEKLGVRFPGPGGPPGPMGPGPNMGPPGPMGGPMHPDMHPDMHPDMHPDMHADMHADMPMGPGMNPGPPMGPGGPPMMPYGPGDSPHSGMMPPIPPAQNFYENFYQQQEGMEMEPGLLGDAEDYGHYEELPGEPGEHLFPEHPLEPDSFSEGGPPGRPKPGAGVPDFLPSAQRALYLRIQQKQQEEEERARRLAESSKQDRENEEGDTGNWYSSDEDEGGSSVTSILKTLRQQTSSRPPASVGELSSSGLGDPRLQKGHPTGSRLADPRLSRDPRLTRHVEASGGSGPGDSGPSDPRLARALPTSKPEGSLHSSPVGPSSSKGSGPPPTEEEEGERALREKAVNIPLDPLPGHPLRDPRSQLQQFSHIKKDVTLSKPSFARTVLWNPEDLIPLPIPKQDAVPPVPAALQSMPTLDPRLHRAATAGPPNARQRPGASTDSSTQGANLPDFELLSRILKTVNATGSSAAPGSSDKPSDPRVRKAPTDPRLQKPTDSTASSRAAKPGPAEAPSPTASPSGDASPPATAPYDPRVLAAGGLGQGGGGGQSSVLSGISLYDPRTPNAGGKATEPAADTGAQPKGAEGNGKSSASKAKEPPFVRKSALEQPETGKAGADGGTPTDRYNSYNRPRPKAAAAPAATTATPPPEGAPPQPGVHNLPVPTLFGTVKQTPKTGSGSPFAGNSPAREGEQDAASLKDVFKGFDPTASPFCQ
UniProt Q9ULJ3: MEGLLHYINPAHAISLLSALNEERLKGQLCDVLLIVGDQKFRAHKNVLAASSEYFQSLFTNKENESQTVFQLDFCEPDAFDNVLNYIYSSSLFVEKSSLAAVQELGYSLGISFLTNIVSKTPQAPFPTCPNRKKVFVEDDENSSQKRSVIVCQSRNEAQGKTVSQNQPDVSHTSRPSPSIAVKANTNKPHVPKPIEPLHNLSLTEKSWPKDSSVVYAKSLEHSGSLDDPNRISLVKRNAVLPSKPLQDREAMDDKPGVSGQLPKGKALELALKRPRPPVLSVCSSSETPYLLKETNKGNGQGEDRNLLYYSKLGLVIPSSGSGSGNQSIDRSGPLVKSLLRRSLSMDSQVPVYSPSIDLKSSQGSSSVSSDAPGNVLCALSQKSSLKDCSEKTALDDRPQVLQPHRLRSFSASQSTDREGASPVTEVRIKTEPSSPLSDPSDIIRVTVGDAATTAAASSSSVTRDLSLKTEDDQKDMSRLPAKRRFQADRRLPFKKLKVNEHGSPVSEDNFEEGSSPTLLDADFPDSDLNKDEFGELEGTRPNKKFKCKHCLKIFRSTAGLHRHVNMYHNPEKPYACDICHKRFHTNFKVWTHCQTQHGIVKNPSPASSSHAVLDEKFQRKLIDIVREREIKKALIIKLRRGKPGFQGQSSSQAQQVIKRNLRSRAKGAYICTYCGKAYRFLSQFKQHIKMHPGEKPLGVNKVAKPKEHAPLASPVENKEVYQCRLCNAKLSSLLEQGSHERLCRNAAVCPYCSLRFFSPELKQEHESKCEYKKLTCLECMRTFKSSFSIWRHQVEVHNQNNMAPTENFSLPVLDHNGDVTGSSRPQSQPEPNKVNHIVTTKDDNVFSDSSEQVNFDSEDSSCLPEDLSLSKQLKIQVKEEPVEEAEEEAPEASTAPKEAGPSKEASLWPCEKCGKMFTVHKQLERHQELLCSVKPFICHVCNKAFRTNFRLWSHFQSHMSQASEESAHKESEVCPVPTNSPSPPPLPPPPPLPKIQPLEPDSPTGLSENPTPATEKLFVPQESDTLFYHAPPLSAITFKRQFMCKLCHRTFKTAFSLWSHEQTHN
UniProt Q5BJH7: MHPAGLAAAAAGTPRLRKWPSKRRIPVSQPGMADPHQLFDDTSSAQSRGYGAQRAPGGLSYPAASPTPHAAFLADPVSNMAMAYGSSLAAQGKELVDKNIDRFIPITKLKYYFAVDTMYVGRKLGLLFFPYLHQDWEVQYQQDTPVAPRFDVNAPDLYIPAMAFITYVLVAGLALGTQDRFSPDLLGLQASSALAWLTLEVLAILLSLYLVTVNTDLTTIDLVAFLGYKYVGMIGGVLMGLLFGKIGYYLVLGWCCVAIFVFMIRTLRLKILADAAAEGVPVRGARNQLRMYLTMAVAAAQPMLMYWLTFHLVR
UniProt Q8IWT0: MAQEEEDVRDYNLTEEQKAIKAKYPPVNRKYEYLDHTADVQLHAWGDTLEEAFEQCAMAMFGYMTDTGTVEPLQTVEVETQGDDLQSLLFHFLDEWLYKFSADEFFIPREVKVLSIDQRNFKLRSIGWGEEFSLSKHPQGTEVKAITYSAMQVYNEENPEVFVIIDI
UniProt Q86WB0: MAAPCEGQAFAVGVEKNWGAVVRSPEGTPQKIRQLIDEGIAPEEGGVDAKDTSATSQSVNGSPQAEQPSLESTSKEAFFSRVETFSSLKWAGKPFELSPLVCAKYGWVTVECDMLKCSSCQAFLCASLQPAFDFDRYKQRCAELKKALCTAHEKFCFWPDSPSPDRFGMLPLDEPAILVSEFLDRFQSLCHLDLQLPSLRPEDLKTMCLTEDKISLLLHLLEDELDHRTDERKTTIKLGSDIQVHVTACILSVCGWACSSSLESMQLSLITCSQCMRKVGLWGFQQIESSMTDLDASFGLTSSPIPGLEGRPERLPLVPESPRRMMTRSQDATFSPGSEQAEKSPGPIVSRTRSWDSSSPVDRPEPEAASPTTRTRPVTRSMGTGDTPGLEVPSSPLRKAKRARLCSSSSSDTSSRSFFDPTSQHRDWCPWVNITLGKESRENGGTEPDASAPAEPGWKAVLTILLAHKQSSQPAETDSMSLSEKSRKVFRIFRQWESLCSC
UniProt O95405: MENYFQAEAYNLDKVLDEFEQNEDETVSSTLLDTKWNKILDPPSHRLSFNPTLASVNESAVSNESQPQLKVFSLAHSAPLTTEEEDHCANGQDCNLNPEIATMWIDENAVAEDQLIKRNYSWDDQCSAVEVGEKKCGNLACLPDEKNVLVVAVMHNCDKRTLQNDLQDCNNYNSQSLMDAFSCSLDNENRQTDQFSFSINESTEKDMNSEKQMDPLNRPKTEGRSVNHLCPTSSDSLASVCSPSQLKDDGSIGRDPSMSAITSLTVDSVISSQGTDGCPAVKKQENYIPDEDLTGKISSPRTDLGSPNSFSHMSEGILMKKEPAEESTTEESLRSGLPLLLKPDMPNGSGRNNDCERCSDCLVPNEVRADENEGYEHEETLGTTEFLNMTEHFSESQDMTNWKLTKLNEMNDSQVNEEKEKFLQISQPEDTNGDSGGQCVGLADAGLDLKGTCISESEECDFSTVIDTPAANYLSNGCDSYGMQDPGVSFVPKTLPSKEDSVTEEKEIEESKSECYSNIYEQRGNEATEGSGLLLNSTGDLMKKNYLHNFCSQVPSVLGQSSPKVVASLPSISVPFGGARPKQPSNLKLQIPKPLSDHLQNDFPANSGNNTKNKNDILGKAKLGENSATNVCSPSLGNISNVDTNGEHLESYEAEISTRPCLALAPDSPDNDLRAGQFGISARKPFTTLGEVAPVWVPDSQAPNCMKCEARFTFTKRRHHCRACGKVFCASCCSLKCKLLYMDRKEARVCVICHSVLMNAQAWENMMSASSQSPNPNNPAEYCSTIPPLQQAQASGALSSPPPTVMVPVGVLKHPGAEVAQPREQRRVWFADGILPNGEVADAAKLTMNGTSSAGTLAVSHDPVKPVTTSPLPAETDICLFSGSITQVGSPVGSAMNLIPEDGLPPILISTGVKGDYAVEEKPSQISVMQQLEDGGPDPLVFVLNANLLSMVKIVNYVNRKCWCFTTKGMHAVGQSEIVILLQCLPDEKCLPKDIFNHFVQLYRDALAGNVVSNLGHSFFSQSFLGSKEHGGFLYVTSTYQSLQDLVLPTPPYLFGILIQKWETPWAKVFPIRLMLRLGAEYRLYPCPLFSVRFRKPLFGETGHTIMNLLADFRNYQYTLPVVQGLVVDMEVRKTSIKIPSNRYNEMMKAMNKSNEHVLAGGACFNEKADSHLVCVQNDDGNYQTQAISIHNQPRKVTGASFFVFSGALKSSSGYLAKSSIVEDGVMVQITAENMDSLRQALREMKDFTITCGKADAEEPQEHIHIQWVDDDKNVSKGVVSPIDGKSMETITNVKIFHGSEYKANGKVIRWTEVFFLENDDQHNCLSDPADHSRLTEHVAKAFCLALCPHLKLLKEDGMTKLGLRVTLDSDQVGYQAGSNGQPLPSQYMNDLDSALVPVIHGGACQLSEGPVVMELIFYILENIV

Legend:
Assay in all cases: log2 fold change, soluble protein after heating vs DMSO (PISA); higher = thermal stabilisation; K562 lysate, 10 uM; active = over 0.2 and 3.5 SD of the protein, either way, in both replicates (recomputed)
[1] = compound: CCCS(=O)(=O)Nc1ccc(F)c(C(=O)c2c[nH]c3ncc(-c4ccc(Cl)cc4)cc23)c1F [vemurafenib]
Outline: (§1)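 K562 pellets were dounce-homogenised in PBS pH 7.4 with 1 mM MgCl2, and the crude extract at 1 mg/mL protein was treated with 10 μM compound for 30 min. Aliquots were heated for 3 min across 48°C-58°C, pooled, and brought to 0.5% NP-40 at 4°C; soluble protein was the supernatant after 21,000xg for 90 min. Soluble protein was quantified by TMTpro 16plex LC-MS/MS with channel sums equalised, and reported as log2 fold change in thermal stability against DMSO controls, with values from duplicates.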

[2] = compound: CCCS(=O)(=O)Nc1ccc(F)c(C(=O)c2c[nH]c3ncc(Cl)cc23)c1F
Outline: as §1

[3] = compound: CCN(CCCOc1ccc2c(Nc3cc(CC(=O)Nc4cccc(F)c4)[nH]n3)ncnc2c1)CCOP(=O)(O)O [barasertib]
Outline: as §1

[4] = compound: CC[C@@H]1C(=O)N(C)c2cnc(Nc3ccc(C(=O)NC4CCN(C)CC4)cc3OC)nc2N1C1CCCC1
Outline: as §1

[5] = compound: CC[C@@H]1C(=O)N(C)c2cnc(Nc3ccc(C(=O)N[C@H]4CC[C@H](N5CCN(CC6CC6)CC5)CC4)cc3OC)nc2N1C(C)C [volasertib]
Outline: as §1

[6] = compound: CCn1c(C(=O)N(C2CC2)C2CC2)cc2c3c(ncn3C)c(Nc3cc(C)n(C)n3)nc21
Outline: as §1

[7] = compound: CCn1cc(-c2ccnc3[nH]c(-c4cccc(CN(C)C)c4)cc23)c(-c2ccc(NC(=O)N(C)C)cc2)n1
Outline: as §1

[8] = compound: CN1CCC(CNc2ccc3ncc(-c4cccc(OC(F)(F)F)c4)n3n2)CC1
Outline: as §1

[9] = compound: CN1CCN(CCOc2cc(OC3CCOCC3)c3c(Nc4c(Cl)ccc5c4OCO5)ncnc3c2)CC1 [saracatinib]
Outline: as §1

[10] = compound: CN1CCN(c2nc(C3=C(c4c[nH]c5ccccc45)C(=O)NC3=O)c3ccccc3n2)CC1 [sotrastaurin]
Outline: as §1

Row | Target | log2 fold change [1] | log2 fold change [2] | log2 fold change [3] | log2 fold change [4] | log2 fold change [5] | log2 fold change [6] | log2 fold change [7] | log2 fold change [8] | log2 fold change [9] | log2 fold change [10]
1 | ZC3H15 (UniProt Q8WU90) | inactive: -0.047 | inactive: 0.012 | inactive: -0.031 | inactive: 0.07 | inactive: 0.011 | inactive: -0.029 | inactive: -0.081 | inactive: 0.06 | inactive: -0.002 | inactive: 0.012
2 | ZC3HAV1 (UniProt Q7Z2W4) | inactive: -0.014 | inactive: 0.021 | inactive: 0.005 | inactive: 0 | inactive: -0.035 | inactive: 0.009 | inactive: -0.062 | inactive: -0.01 | inactive: 0.001 | inactive: 0.004
3 | ZFAND6 (UniProt Q6FIF0) | inactive: -0.032 | inactive: 0.006 | inactive: 0.04 | inactive: 0.049 | inactive: 0.015 | inactive: 0.092 | inactive: 0.015 | inactive: 0 | inactive: -0.016 | inactive: -0.097
4 | ZFC3H1 (UniProt O60293) | inactive: 0.044 | inactive: 0.041 | inactive: 0.108 | inactive: -0.003 | inactive: -0.048 | inactive: 0.032 | inactive: -0.04 | inactive: 0.025 | inactive: -0.099 | inactive: 0.024
5 | YIPF6 (UniProt Q96EC8) | inactive: -0.074 | inactive: -0.016 | inactive: -0.021 | inactive: 0.049 | inactive: 0.03 | inactive: 0.033 | inactive: -0.017 | inactive: -0.032 | inactive: 0.073 | inactive: 0.037
6 | XRCC5 (UniProt P13010) | inactive: 0.001 | inactive: 0.003 | inactive: 0.002 | inactive: -0.036 | inactive: -0.045 | inactive: 0.014 | inactive: 0.079 | inactive: -0.052 | inactive: -0.007 | inactive: -0.01
7 | YTHDF3 (UniProt Q7Z739) | inactive: -0.019 | inactive: 0.002 | inactive: 0.119 | inactive: 0.058 | inactive: -0.071 | inactive: 0.168 | inactive: -0.041 | inactive: 0.01 | inactive: 0.076 | inactive: -0.083
8 | ZDHHC3 isoform 2 (UniProt Q9NYG2) | inactive: -0.167 | inactive: 0.022 | inactive: 0.035 | inactive: 0.056 | inactive: -0.021 | inactive: -0.062 | inactive: -0.204 | inactive: 0.053 | inactive: 0.113 | inactive: 0.041
9 | YBX3 isoform 2 (UniProt P16989) | inactive: 0.036 | inactive: -0.003 | inactive: -0.118 | inactive: 0.064 | inactive: -0.003 | inactive: 0.179 | inactive: 0.129 | inactive: 0.03 | inactive: -0.06 | inactive: 0.068
10 | ZC3H14 (UniProt Q6PJT7) | inactive: 0.051 | inactive: 0.063 | inactive: 0.059 | inactive: 0.006 | inactive: 0.004 | inactive: -0.013 | inactive: 0 | inactive: 0.015 | inactive: 0.005 | inactive: 0.006
11 | ZER1 (UniProt Q7Z7L7) | inactive: 0.045 | inactive: 0.011 | inactive: -0.074 | inactive: 0.056 | inactive: -0.038 | inactive: 0.082 | inactive: -0.202 | inactive: 0.056 | inactive: -0.116 | inactive: -0.037
12 | ZC3H7B (UniProt Q9UGR2) | inactive: 0.031 | inactive: 0.046 | inactive: 0.061 | inactive: 0.022 | inactive: -0.033 | inactive: -0.025 | inactive: 0.03 | inactive: -0.08 | inactive: -0.002 | inactive: 0.04
13 | ZC3H4 (UniProt Q9UPT8) | inactive: 0.009 | inactive: 0.036 | inactive: -0.028 | inactive: 0.082 | inactive: 0.01 | inactive: -0.031 | inactive: -0.016 | inactive: -0.051 | inactive: -0.013 | inactive: -0.019
14 | YTHDC2 (UniProt Q9H6S0) | inactive: 0.068 | inactive: 0.022 | inactive: 0.07 | inactive: -0.013 | inactive: -0.027 | inactive: 0.025 | inactive: 0.025 | inactive: 0.005 | inactive: 0.015 | inactive: 0.022
15 | YME1L1 (UniProt Q96TA2) | inactive: 0.01 | inactive: 0.011 | inactive: 0.036 | inactive: -0.008 | inactive: -0.02 | inactive: 0.035 | inactive: 0.181 | inactive: -0.088 | inactive: 0.037 | inactive: 0.055
16 | ZBTB21 (UniProt Q9ULJ3) | inactive: 0.031 | inactive: 0.03 | inactive: -0.007 | inactive: 0.232 | inactive: -0.022 | inactive: -0.042 | inactive: -0.105 | inactive: 0.062 | inactive: 0.034 | inactive: -0.011
17 | XRCC4 (UniProt Q13426) | inactive: 0 | inactive: 0.02 | inactive: 0.005 | inactive: -0.009 | inactive: 0.025 | inactive: 0.011 | inactive: -0.096 | inactive: 0.067 | inactive: 0.014 | inactive: -0.018
18 | XPO5 (UniProt Q9HAV4) | inactive: -0.006 | inactive: 0.005 | inactive: 0.022 | inactive: -0.028 | inactive: -0.062 | inactive: 0.027 | inactive: -0.043 | inactive: -0.041 | inactive: 0.011 | inactive: 0.007
19 | YIF1B (UniProt Q5BJH7) | inactive: -0.01 | inactive: 0.023 | inactive: 0.02 | inactive: -0.032 | inactive: 0.01 | inactive: 0.034 | inactive: -0.028 | inactive: -0.071 | inactive: 0.011 | inactive: 0.012
20 | ZFYVE19 (UniProt Q96K21) | inactive: 0 | inactive: 0.02 | inactive: 0.016 | inactive: 0.077 | inactive: 0.023 | inactive: 0.006 | active: -0.232 | inactive: 0.126 | inactive: -0.027 | inactive: 0.013
21 | ZBTB8OS (UniProt Q8IWT0) | inactive: -0.07 | inactive: 0.001 | inactive: 0.023 | inactive: -0.064 | inactive: -0.031 | inactive: 0.004 | inactive: -0.066 | inactive: 0.075 | inactive: -0.024 | inactive: -0.01
22 | ZC3H13 (UniProt Q5T200) | inactive: -0.027 | inactive: -0.037 | inactive: -0.045 | inactive: 0.036 | inactive: -0.013 | inactive: -0.031 | inactive: 0.033 | inactive: 0 | inactive: -0.046 | inactive: 0.222
23 | ZC3H11A (UniProt O75152) | inactive: 0.104 | inactive: 0.084 | inactive: 0.055 | inactive: 0.03 | inactive: -0.022 | inactive: 0 | inactive: 0.283 | inactive: -0.182 | inactive: -0.016 | inactive: 0.013
24 | ZFPL1 (UniProt O95159) | inactive: -0.069 | inactive: 0.102 | inactive: -0.166 | inactive: -0.042 | inactive: -0.12 | inactive: -0.063 | inactive: 0.116 | inactive: -0.034 | inactive: -0.052 | inactive: -0.058
25 | ZC3HC1 (UniProt Q86WB0) | inactive: -0.006 | inactive: 0.027 | inactive: -0.029 | inactive: -0.036 | inactive: 0.015 | inactive: 0.008 | active: 0.253 | inactive: -0.075 | inactive: -0.03 | inactive: -0.022
26 | YES1 (UniProt P07947) | inactive: 0.068 | inactive: 0.088 | inactive: 0.334 | inactive: -0.086 | inactive: -0.205 | inactive: -0.106 | inactive: -0.146 | inactive: -0.007 | inactive: 0.331 | inactive: -0.084
27 | YARS (UniProt P54577) | inactive: -0.008 | inactive: -0.012 | inactive: -0.015 | inactive: -0.041 | inactive: -0.031 | inactive: 0.014 | inactive: -0.031 | inactive: -0.034 | inactive: 0.019 | inactive: -0.02
28 | ZFYVE9 (UniProt O95405) | inactive: 0.011 | inactive: 0.039 | inactive: 0.083 | inactive: -0.03 | inactive: 0.009 | inactive: -0.064 | inactive: 0 | inactive: 0.012 | inactive: -0.011 | inactive: 0.018
29 | ZDHHC5 (UniProt Q9C0B5) | inactive: 0.043 | inactive: 0.038 | inactive: 0.011 | inactive: 0.006 | inactive: 0.005 | inactive: -0.019 | inactive: 0.052 | inactive: -0.008 | inactive: 0.017 | inactive: 0.013
30 | ZC3H8 (UniProt Q8N5P1) | inactive: 0.008 | inactive: 0.037 | inactive: 0.026 | inactive: 0.014 | inactive: 0.018 | inactive: -0.048 | inactive: -0.021 | inactive: 0 | inactive: -0.003 | inactive: -0.019

Some of the entries so far, with tabs:
Row	Target	log2 fold change [1]	log2 fold change [2]	log2 fold change [3]	log2 fold change [4]	log2 fold change [5]	log2 fold change [6]	log2 fold change [7]	log2 fold change [8]	log2 fold change [9]	log2 fold change [10]
12	ZC3H7B (UniProt Q9UGR2)	inactive: 0.031	inactive: 0.046	inactive: 0.061	inactive: 0.022	inactive: -0.033	inactive: -0.025	inactive: 0.03	inactive: -0.08	inactive: -0.002	inactive: 0.04
13	ZC3H4 (UniProt Q9UPT8)	inactive: 0.009	inactive: 0.036	inactive: -0.028	inactive: 0.082	inactive: 0.01	inactive: -0.031	inactive: -0.016	inactive: -0.051	inactive: -0.013	inactive: -0.019
